Results as given in patent publication US11497751B2, “Modulators of Rho-associated protein kinase” (Redx Pharma PLC, priority 2018, dated 2022).

Protein sequences, listed by entry. Tags and fused reporters are not part of them. Residues count along the entry.
UniProt O75116, 11-552 limits assumed: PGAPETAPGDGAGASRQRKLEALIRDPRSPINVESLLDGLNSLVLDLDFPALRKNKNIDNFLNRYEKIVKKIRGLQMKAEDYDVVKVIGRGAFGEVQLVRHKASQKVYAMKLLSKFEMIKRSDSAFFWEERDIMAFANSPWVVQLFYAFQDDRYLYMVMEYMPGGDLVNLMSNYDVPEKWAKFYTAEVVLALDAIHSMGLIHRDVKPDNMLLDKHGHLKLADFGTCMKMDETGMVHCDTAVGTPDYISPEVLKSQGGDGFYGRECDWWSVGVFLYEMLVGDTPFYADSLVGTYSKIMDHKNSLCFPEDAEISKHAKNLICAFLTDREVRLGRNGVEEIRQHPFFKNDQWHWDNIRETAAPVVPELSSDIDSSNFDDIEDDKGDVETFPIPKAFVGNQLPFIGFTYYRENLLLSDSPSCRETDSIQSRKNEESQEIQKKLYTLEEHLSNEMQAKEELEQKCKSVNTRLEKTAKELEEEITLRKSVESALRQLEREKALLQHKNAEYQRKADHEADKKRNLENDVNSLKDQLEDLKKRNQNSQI

Target: N-terminal 6His-tagged ROCK2 catalytic domain 11-552 (Homo sapiens, UniProt O75116)
Experiment: ROCK2 binding activity: ROCK2 inhibition, ADP-Glo Kinase Assay
Settings: read-out: ADP-Glo kinase activity assay ROCK2 Category; 1.25 nM ROCK2, 100 μM long S6 peptide, 20 μM ATP; 1 hour pre-incubation
Experimental: Assay for ROCK2 inhibition was performed using the protein construct N-terminal 6His-tagged ROCK2 catalytic domain 11-552 (Dundee University, UK). Protein was purified from a baculovirus expression system. Long S6 peptide ([…]) was used as substrate. Kinase reactions were carried out in 15 μl volume in a 96-well plate (black, half area) using 1.25 nM constitutively active ROCK2 kinase, 100 μM long S6 peptide, 20 μM ATP and test compound in DMSO (or DMSO only for controls). The final concentration of DMSO was 1%. Assay buffer was 50 mM HEPES pH 7.5 supplemented with 0.2 mM EDTA, 10 mM magnesium acetate, 0.01% Tween-20, 1 mM DTT and 0.01% BSA. Test compounds were pre-incubated with ROCK2 kinase for 1 hour before addition of ATP and long S6 peptide. After incubation for a further 1 hour, the amount of ADP produced was measured using ADP-Glo Kinase Assay (Promega) as per manufacturer's instructions. The luminescence was measured on a PHERAstar FS (BMG Labtech). The concentration of test compound required to inhibit ADP production by 50% (the IC50) was calculated using a four-parameter logistic function with software by Dotmatics.
The category “+” refers to compounds with a ROCK2 IC50 value of >10 μM. The category “++” refers to compounds with a ROCK2 IC50 value of 10 to 3 μM. The category “+++” refers to compounds with a ROCK2 IC50 value of 3 to 0.3 μM. The category “++++” refers to compounds with a ROCK2 IC50 value of <0.3 μM.

IC50, < 300 nM:
CCc1cc(-c2ccc(-c3nc(Nc4ccc5[nH]ncc5c4C4CC4)n(C)n3)cc2)n[nH]1
Cn1nccc1-c1ccc(-c2nc(Nc3ccc4[nH]ncc4c3C3CC3)n(C)n2)cc1
Cn1cc(-c2ccc(-c3nc(Nc4ccc5[nH]ncc5c4C4CC4)n(C)n3)cc2)cn1
Cn1ccc(-c2ccc(-c3nc(Nc4ccc5[nH]ncc5c4C4CC4)n(C)n3)cc2)n1
Cc1c[nH]c(-c2ccc(-c3nc(Nc4ccc5[nH]ncc5c4C4CC4)n(C)n3)cc2)n1

The structures given here were assigned with low confidence; some may be wrong.
